PubChem BioAssay AID493246 | Drosophila RNAi Screening Center – 2011

Screen: 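Genes fly cells need to grow and stay alive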 (primary screen)
Cell system: Drosophila Kc and S2R+ cells
Reagents: long dsRNA against Drosophila genes
Measurement: 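Raw, unnormalised count of remaining cells in each well; per-plate z-scores of cell number underlie the calls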
Direction: Kc cell number and S2R+ cell number: higher = more cells remaining
Active means: 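Active when the per-plate z-score of cell number is 3 or more in the direction of fewer cells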
In all, the deposit lists about 21,000 reagents; this is a random part of those with a known target gene and a result. Over the whole deposit, 429 (2%) got an active call. 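Values are raw and not normalised between plates; calls rest on per-plate z-scores that were not deposited.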 Unmarked entries are inactive. Reagent sequences are not shown. The record does not give: the amount of reagent, the time to read-out.

Against MED31 (Mediator complex subunit 31) [DRSC12142], the entry reads Kc cell number, rep 1 = 1.42e6; Kc cell number, rep 2 = 1.55e6; S2R+ cell number, rep 1 = 1.18e6; S2R+ cell number, rep 2 = 1.34e6. After knock-down of Cpr11A (Cuticular protein 11A) [DRSC19861], the screen gave Kc cell number, rep 1 = 1.63e6; Kc cell number, rep 2 = 1.46e6; S2R+ cell number, rep 1 = 1.15e6; S2R+ cell number, rep 2 = 1.18e6. Against CG10953 [DRSC06021], the entry reads Kc cell number, rep 1 = 1.48e6; Kc cell number, rep 2 = 1.56e6; S2R+ cell number, rep 1 = 1.16e6; S2R+ cell number, rep 2 = 1.19e6. With knock-down of CG44837 [DRSC10133] the results were Kc cell number, rep 1 = 1.29e6; Kc cell number, rep 2 = 1.34e6; S2R+ cell number, rep 1 = 9.45e5; S2R+ cell number, rep 2 = 1.06e6. CG44837 [DRSC10558] gave Kc cell number, rep 1 = 1.38e6; Kc cell number, rep 2 = 1.35e6; S2R+ cell number, rep 1 = 1.20e6; S2R+ cell number, rep 2 = 1.35e6. After knock-down of Pdzd8 (PDZ domain containing 8) [DRSC19355], the screen gave Kc cell number, rep 1 = 1.51e6; Kc cell number, rep 2 = 1.52e6; S2R+ cell number, rep 1 = 8.93e5; S2R+ cell number, rep 2 = 9.62e5.

Targets above whose target name starts with C or c (4):
Cpr11A (Cuticular protein 11A) [DRSC19861] → Kc cell number, rep 1 = 1.63e6; Kc cell number, rep 2 = 1.46e6; S2R+ cell number, rep 1 = 1.15e6; S2R+ cell number, rep 2 = 1.18e6
CG10953 [DRSC06021] → Kc cell number, rep 1 = 1.48e6; Kc cell number, rep 2 = 1.56e6; S2R+ cell number, rep 1 = 1.16e6; S2R+ cell number, rep 2 = 1.19e6
CG44837 [DRSC10133] → Kc cell number, rep 1 = 1.29e6; Kc cell number, rep 2 = 1.34e6; S2R+ cell number, rep 1 = 9.45e5; S2R+ cell number, rep 2 = 1.06e6
CG44837 [DRSC10558] → Kc cell number, rep 1 = 1.38e6; Kc cell number, rep 2 = 1.35e6; S2R+ cell number, rep 1 = 1.20e6; S2R+ cell number, rep 2 = 1.35e6

The list goes on:
With knock-down of INPP5E (Inositol polyphosphate 5-phosphatase E) [DRSC09723], the screen gave Kc cell number, rep 1 = 1.33e6; Kc cell number, rep 2 = 1.37e6; S2R+ cell number, rep 1 = 1.29e6; S2R+ cell number, rep 2 = 1.30e6. For CG10165 [DRSC02017] the deposit lists Kc cell number, rep 1 = 1.30e6; Kc cell number, rep 2 = 1.39e6; S2R+ cell number, rep 1 = 1.31e6; S2R+ cell number, rep 2 = 1.36e6. With knock-down of dgt6 (dim gamma-tubulin 6) [DRSC14424], the record shows Kc cell number, rep 1 = 5.31e5; S2R+ cell number, rep 1 = 6.79e5. Ypel (Yippee-like) [DRSC17996] showed Kc cell number, rep 1 = 6.67e5; S2R+ cell number, rep 1 = 1.02e6. Knock-down of ebd1 (earthbound 1) [DRSC08565] gave: Kc cell number, rep 1 = 1.13e6; Kc cell number, rep 2 = 1.26e6; S2R+ cell number, rep 1 = 8.60e5; S2R+ cell number, rep 2 = 1.02e6. After knock-down of Pldn (Pallidin) [DRSC10137] the results were Kc cell number, rep 1 = 1.69e6; Kc cell number, rep 2 = 1.75e6; S2R+ cell number, rep 1 = 1.33e6; S2R+ cell number, rep 2 = 1.58e6.
